Measurements as given in US20100184708A1, “USE OF GLY-PRO-GLU-OH (GPE) AS A THERAPEUTIC AGENT” (priority 2007, published 2010).
Part of at least one peptide drawing is inferred or uncertain, most often the ends.

Experiments:
A549 cells [1] = experiment: Propidium iodide cell cycle assay; format: cell-based, Human; conditions: 10 micrograms per ml, 24 hours, FACS
RAW 264.7 cells = experiment: Phagocytosis assay; format: cell-based, Mouse; conditions: 10 micrograms per ml; Fluorescein-labeled Escherichia coli; flow cytometry
HUVEC = experiment: Endothelial tube formation assay; format: cell-based, Human; conditions: 10 micrograms per ml, 20 hours
[2] = system: PHA-stimulated Peripheral Blood Mononuclear Cells (PBMC); experiment: T cell proliferation assay; format: cell-based, Human; conditions: 10 micrograms per ml, 3H-thymidine incorporation
A549 cells [3] = experiment: Apoptosis prevention assay (C2 ceramide, Annexin-5); format: cell-based, Human; conditions: 10 micrograms per ml pretreated 30 min
[4] = system: peripheral blood mononuclear cells (PBMC); experiment: cAMP induction assay; format: cell-based, human; conditions: 10 micrograms per ml, 10 min, ELISA
HIV-1IIIB = experiment: HIV-1 antiviral assay (CPE reduction); format: cell-based; conditions: peptide 10 micrograms per ml; 6 days post-infection; MTS
A549 cells [5] = experiment: Apoptosis induction assay (Annexin-5); format: cell-based, Human; conditions: 24 hours
[6] = system: Primary Human endothelial cells (HUVEC); experiment: Endothelial cell migration assay; format: cell-based; conditions: 10 micrograms per ml, 22 hours
[7] = system: SAC plus Interleukin-2 stimulated Peripheral Blood Mononuclear Cells (PBMC); experiment: B cell proliferation assay; format: cell-based, Human; conditions: 10 micrograms per ml, 3H-thymidine incorporation
[8] = system: Ovalbumin-restimulated spleen cells; experiment: Th1/Th2 cytokine profiling assay; format: cell-based, Balb/c mice; conditions: 10 micrograms per ml; Ovalbumin restimulation; 72 hours
[9] = system: LPS-stimulated macrophages differentiated from PBMC; experiment: TNF alpha production assay; format: cell-based, Human; conditions: TNF alpha ELISA; 10 micrograms per ml; lipopolysaccharide 200 ng/ml; overnight

Structure (SMILES): NCC(=O)N1CCC[C@H]1C(=O)N[C@@H](CCC(=O)O)C(=O)O [IGF-I (1-3), Gly-Pro-Glu-OH]
- Cell cycle analysis G0/G1 (A549 cells [1]): 60.0
- Cell cycle analysis G2/M (A549 cells [1]): 7.2
- Cell cycle analysis S (A549 cells [1]): 32.8
- % of control phagocytosis (RAW 264.7 cells): 105.9%
- % inhibition of tube formation (HUVEC): 20%
- % of PHA induced control [2]: 103.4%
- % prevention of ceramide induced apoptosis (A549 cells [3]): −3.25%
- % of Forskolin (positive control) induced cAMP formation [4]: 0.0%
- % CPE reduction in HIV-1 infected CEM-SS cells (HIV-1IIIB): 0.0%
- % of induction (A549 cells [5]): 1.4%
- % inhibition of migration [6]: 11%
- % of SAC/IL2 induced control [7]: 107.3%
- IFNγ spleen cells; TH1 response (% of control) [8]: 57.5 % of control
- IL-2 spleen cells (% of control) [8]: 124.0 % of control
- IL-4 spleen cells; TH2 response (% of control) [8]: 152.7 % of control
- IL-5 spleen cells; TH2 response (% of control) [8]: 62.8 % of control
- TNF-a spleen cells; TH1 response (% of control) [8]: 91.2 % of control
- % of LPS induction [9]: 107.7%
